{
  "source": "the supplement of paper PMC8728848",
  "binders": {"B1": {"name": "Clone646PsrP (Streptococcus pneumoniae) (protein)", "chain": "MDHHHHHHHHASENLYFQGAPAINASLNIAKSETKVYTGEGVDSVYRVPIYYKLKVTNDGSKLTFTYTVTYVNPKTNDLGNISSMRPGYSIYNSGTSTQTMLTLGSDLGKPSGVKNYITDKNGRQVLSYNTSTMTTQGSGYTWGNGAQMNGFFAKKGYGLTSSWTVPITGTDTSFTFTPYAARTDRIGINYFNGGGKVVESSTTSQSLSQSKSLSVSAS"}},
  "test_in_all_cases": "glycan array binding signal (z-score within array); higher = stronger binding",
  "conditions_in_all_cases": "glycan notation: IUPAC condensed, linker removed",
  "key": {"[1]": {"target": "Fuc(a1-2)[GalNAc(a1-3)]Gal(b1-3)GlcNAc(b1-6)GalNAc", "summary_of_the_method": "(§1)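 Columns mapping to the same glycan were averaged after glycan names were converted to IUPAC-condensed notation. The data come from 3228 arrays in the Consortium for Functional Glycomics database, limited to those with an available protein sequence. Binding is reported as a within-array Z-score averaged across arrays of one protein sequence and across linkers.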"}, "[2]": {"target": "Fuc(a1-2)[GalNAc(a1-3)]Gal(b1-4)Glc", "summary_of_the_method": "as §1"}, "[3]": {"target": "Fuc(a1-2)[GalNAc(a1-3)]Gal(b1-4)GlcNAc", "summary_of_the_method": "as §1"}, "[4]": {"target": "Fuc(a1-2)[GalNAc(a1-3)]Gal(b1-4)GlcNAc(b1-2)Man", "summary_of_the_method": "as §1"}, "[5]": {"target": "Fuc(a1-2)[GalNAc(a1-3)]Gal(b1-4)GlcNAc(b1-2)Man(a1-3)[Fuc(a1-2)[GalNAc(a1-3)]Gal(b1-4)GlcNAc(b1-2)Man(a1-6)]Man(b1-4)GlcNAc(b1-4)GlcNAc", "summary_of_the_method": "as §1"}, "[6]": {"target": "Fuc(a1-2)[GalNAc(a1-3)]Gal(b1-4)GlcNAc(b1-2)Man(a1-3)[Fuc(a1-2)[GalNAc(a1-3)]Gal(b1-4)GlcNAc(b1-2)Man(a1-6)]Man(b1-4)GlcNAc(b1-4)[Fuc(a1-6)]GlcNAc", "summary_of_the_method": "as §1"}, "[7]": {"target": "Fuc(a1-2)[GalNAc(a1-3)]Gal(b1-4)GlcNAc(b1-3)Gal(b1-4)GlcNAc", "summary_of_the_method": "as §1"}, "[8]": {"target": "Fuc(a1-2)[GalNAc(a1-3)]Gal(b1-4)GlcNAc(b1-3)Gal(b1-4)GlcNAc(b1-3)Gal(b1-4)GlcNAc", "summary_of_the_method": "as §1"}, "[9]": {"target": "Fuc(a1-2)[GalNAc(a1-3)]Gal(b1-4)GlcNAc(b1-3)GalNAc", "summary_of_the_method": "as §1"}, "[10]": {"target": "Fuc(a1-2)[GalNAc(a1-3)]Gal(b1-4)GlcNAc(b1-3)[Fuc(a1-2)[GalNAc(a1-3)]Gal(b1-4)GlcNAc(b1-6)]GalNAc", "summary_of_the_method": "as §1"}, "[11]": {"target": "Fuc(a1-2)[GalNAc(a1-3)]Gal(b1-4)GlcNAc(b1-6)GalNAc", "summary_of_the_method": "as §1"}, "[12]": {"target": "Fuc(a1-2)[GalNAc(a1-3)]Gal(b1-4)[Fuc(a1-3)]GlcNAc", "summary_of_the_method": "as §1"}, "[13]": {"target": "Fuc(a1-2)[GalNAc(a1-3)]Gal(b1-4)[Fuc(a1-3)]GlcNAc(b1-3)GalNAc", "summary_of_the_method": "as §1"}, "[14]": {"target": "Fuc(a1-2)[GalNAc(a1-4)]Gal(b1-4)GlcNAc", "summary_of_the_method": "as §1"}, "[15]": {"target": "Fuc(a1-2)[GalNAc(b1-3)]Gal", "summary_of_the_method": "as §1"}, "Fuc(a1-3)GlcNAc": {"target": "Fuc(a1-3)GlcNAc", "summary_of_the_method": "as §1"}, "[16]": {"target": "Fuc(a1-3)[Gal(b1-4)]Glc6S", "summary_of_the_method": "as §1"}, "[17]": {"target": "Fuc(a1-3)[Gal(b1-4)]GlcNAc", "summary_of_the_method": "as §1"}, "[18]": {"target": "Fuc(a1-3)[Gal(b1-4)]GlcNAc(b1-2)Man", "summary_of_the_method": "as §1"}, "[19]": {"target": "Fuc(a1-3)[Gal(b1-4)]GlcNAc(b1-2)Man(a1-3)[Fuc(a1-3)[Gal(b1-4)]GlcNAc(b1-2)Man(a1-6)]Man(b1-4)GlcNAc(b1-4)GlcNAc", "summary_of_the_method": "as §1"}, "[20]": {"target": "Fuc(a1-3)[Gal(b1-4)]GlcNAc(b1-2)Man(a1-3)[Fuc(a1-3)[Gal(b1-4)]GlcNAc(b1-2)Man(a1-6)]Man(b1-4)GlcNAc(b1-4)[Fuc(a1-6)]GlcNAc", "summary_of_the_method": "as §1"}, "[21]": {"target": "Fuc(a1-3)[Gal(b1-4)]GlcNAc(b1-3)Gal(b1-3)[Fuc(a1-4)]GlcNAc", "summary_of_the_method": "as §1"}, "[22]": {"target": "Fuc(a1-3)[Gal(b1-4)]GlcNAc(b1-3)Gal(b1-4)[Fuc(a1-3)]GlcNAc", "summary_of_the_method": "as §1"}, "[23]": {"target": "Fuc(a1-3)[Gal(b1-4)]GlcNAc(b1-3)Gal(b1-4)[Fuc(a1-3)]GlcNAc(b1-3)Gal(b1-4)[Fuc(a1-3)]GlcNAc", "summary_of_the_method": "as §1"}, "[24]": {"target": "Fuc(a1-3)[Gal(b1-4)]GlcNAc(b1-3)GalNAc", "summary_of_the_method": "as §1"}, "[25]": {"target": "Fuc(a1-3)[Gal(b1-4)]GlcNAc(b1-6)GalNAc", "summary_of_the_method": "as §1"}, "[26]": {"target": "Fuc(a1-3)[Gal(b1-4)]GlcNAc(b1-6)[Gal(b1-3)GlcNAc(b1-3)]Gal(b1-4)Glc", "summary_of_the_method": "as §1"}, "[27]": {"target": "Fuc(a1-3)[Gal(b1-4)]GlcNAc6S", "summary_of_the_method": "as §1"}, "[28]": {"target": "Fuc(a1-3)[Gal3S(b1-4)]Glc", "summary_of_the_method": "as §1"}, "[29]": {"target": "Fuc(a1-3)[Gal3S(b1-4)]GlcNAc", "summary_of_the_method": "as §1"}, "[30]": {"target": "Fuc(a1-3)[Gal3S(b1-4)]GlcNAc6S", "summary_of_the_method": "as §1"}, "[31]": {"target": "Fuc(a1-3)[GalNAc(b1-4)]GlcNAc", "summary_of_the_method": "as §1"}, "[32]": {"target": "Fuc(a1-3)[GalNAc(b1-4)]GlcNAc6S", "summary_of_the_method": "as §1"}, "Fuc(a1-4)GlcNAc": {"target": "Fuc(a1-4)GlcNAc", "summary_of_the_method": "as §1"}, "Fuc(b1-3)GlcNAc": {"target": "Fuc(b1-3)GlcNAc", "summary_of_the_method": "as §1"}, "Gal(a1-2)Gal": {"target": "Gal(a1-2)Gal", "summary_of_the_method": "as §1"}, "Gal(a1-3)Gal": {"target": "Gal(a1-3)Gal", "summary_of_the_method": "as §1"}, "Gal(a1-3)Gal(b1-3)GlcNAc": {"target": "Gal(a1-3)Gal(b1-3)GlcNAc", "summary_of_the_method": "as §1"}, "[33]": {"target": "Gal(a1-3)Gal(b1-3)GlcNAc(b1-2)Man", "summary_of_the_method": "as §1"}, "[34]": {"target": "Gal(a1-3)Gal(b1-3)GlcNAc(b1-2)Man(a1-3)[Gal(a1-3)Gal(b1-3)GlcNAc(b1-2)Man(a1-6)]Man(b1-4)GlcNAc(b1-4)GlcNAc", "summary_of_the_method": "as §1"}, "[35]": {"target": "Gal(a1-3)Gal(b1-3)GlcNAc(b1-3)GalNAc", "summary_of_the_method": "as §1"}, "[36]": {"target": "Gal(a1-3)Gal(b1-3)GlcNAc(b1-6)GalNAc", "summary_of_the_method": "as §1"}, "[37]": {"target": "Gal(a1-3)Gal(b1-3)[Fuc(a1-4)]GlcNAc(b1-2)Man(a1-3)[Gal(a1-3)Gal(b1-3)[Fuc(a1-4)]GlcNAc(b1-2)Man(a1-6)]Man(b1-4)GlcNAc(b1-4)GlcNAc", "summary_of_the_method": "as §1"}, "Gal(a1-3)Gal(b1-4)Glc": {"target": "Gal(a1-3)Gal(b1-4)Glc", "summary_of_the_method": "as §1"}, "Gal(a1-3)Gal(b1-4)GlcNAc": {"target": "Gal(a1-3)Gal(b1-4)GlcNAc", "summary_of_the_method": "as §1"}},
  "note": "The other results are listed elsewhere or left out.",
  "data": [
    {"binder": "B1", "values": [
      {"measurement": "glycan array binding signal (z-score)", "setting": "[1]", "value": -0.849},
      {"measurement": "glycan array binding signal (z-score)", "setting": "[2]", "value": -0.855},
      {"measurement": "glycan array binding signal (z-score)", "setting": "[3]", "value": -0.709},
      {"measurement": "glycan array binding signal (z-score)", "setting": "[4]", "value": -0.363},
      {"measurement": "glycan array binding signal (z-score)", "setting": "[5]", "value": -0.839},
      {"measurement": "glycan array binding signal (z-score)", "setting": "[6]", "value": 0.318},
      {"measurement": "glycan array binding signal (z-score)", "setting": "[7]", "value": -0.638},
      {"measurement": "glycan array binding signal (z-score)", "setting": "[8]", "value": -0.2},
      {"measurement": "glycan array binding signal (z-score)", "setting": "[9]", "value": 0.378},
      {"measurement": "glycan array binding signal (z-score)", "setting": "[10]", "value": 0.544},
      {"measurement": "glycan array binding signal (z-score)", "setting": "[11]", "value": -0.917},
      {"measurement": "glycan array binding signal (z-score)", "setting": "[12]", "value": 0.864},
      {"measurement": "glycan array binding signal (z-score)", "setting": "[13]", "value": 0.478},
      {"measurement": "glycan array binding signal (z-score)", "setting": "[14]", "value": -0.73},
      {"measurement": "glycan array binding signal (z-score)", "setting": "[15]", "value": -0.798},
      {"measurement": "glycan array binding signal (z-score)", "setting": "Fuc(a1-3)GlcNAc", "value": 0.18},
      {"measurement": "glycan array binding signal (z-score)", "setting": "[16]", "value": 2.27},
      {"measurement": "glycan array binding signal (z-score)", "setting": "[17]", "value": 0.303},
      {"measurement": "glycan array binding signal (z-score)", "setting": "[18]", "value": -0.231},
      {"measurement": "glycan array binding signal (z-score)", "setting": "[19]", "value": -0.096},
      {"measurement": "glycan array binding signal (z-score)", "setting": "[20]", "value": -0.573},
      {"measurement": "glycan array binding signal (z-score)", "setting": "[21]", "value": -0.683},
      {"measurement": "glycan array binding signal (z-score)", "setting": "[22]", "value": -0.133},
      {"measurement": "glycan array binding signal (z-score)", "setting": "[23]", "value": -0.6},
      {"measurement": "glycan array binding signal (z-score)", "setting": "[24]", "value": 0.014},
      {"measurement": "glycan array binding signal (z-score)", "setting": "[25]", "value": 0.039},
      {"measurement": "glycan array binding signal (z-score)", "setting": "[26]", "value": -0.007},
      {"measurement": "glycan array binding signal (z-score)", "setting": "[27]", "value": 0.684},
      {"measurement": "glycan array binding signal (z-score)", "setting": "[28]", "value": -0.178},
      {"measurement": "glycan array binding signal (z-score)", "setting": "[29]", "value": 1.3},
      {"measurement": "glycan array binding signal (z-score)", "setting": "[30]", "value": -0.227},
      {"measurement": "glycan array binding signal (z-score)", "setting": "[31]", "value": 0.979},
      {"measurement": "glycan array binding signal (z-score)", "setting": "[32]", "value": 0.395},
      {"measurement": "glycan array binding signal (z-score)", "setting": "Fuc(a1-4)GlcNAc", "value": 0.452},
      {"measurement": "glycan array binding signal (z-score)", "setting": "Fuc(b1-3)GlcNAc", "value": 1.31},
      {"measurement": "glycan array binding signal (z-score)", "setting": "Gal(a1-2)Gal", "value": 1.52},
      {"measurement": "glycan array binding signal (z-score)", "setting": "Gal(a1-3)Gal", "value": -0.601},
      {"measurement": "glycan array binding signal (z-score)", "setting": "Gal(a1-3)Gal(b1-3)GlcNAc", "value": -0.923},
      {"measurement": "glycan array binding signal (z-score)", "setting": "[33]", "value": -0.341},
      {"measurement": "glycan array binding signal (z-score)", "setting": "[34]", "value": 0.272},
      {"measurement": "glycan array binding signal (z-score)", "setting": "[35]", "value": 1.68},
      {"measurement": "glycan array binding signal (z-score)", "setting": "[36]", "value": -0.9},
      {"measurement": "glycan array binding signal (z-score)", "setting": "[37]", "value": -0.373},
      {"measurement": "glycan array binding signal (z-score)", "setting": "Gal(a1-3)Gal(b1-4)Glc", "value": -0.512},
      {"measurement": "glycan array binding signal (z-score)", "setting": "Gal(a1-3)Gal(b1-4)GlcNAc", "value": -0.743}
    ]}
  ]
}
